The other results are listed elsewhere or left out.
What follows are targets tested with COc1ccc(Cn2ccc3cc(C)c(C(=O)NO)cc32)cc1 (assay: dose-dependent thermal stabilisation call (2D-TPP, DLPTP, 10% FDR) (binary (1 = stabilised)); higher = stabilised by the compound). Conditions: system: HL-60 intact cells; concentration range 0.04-10 µM.
Experimental: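 2D thermal proteome profiling in intact HL-60 cells treated with BRD-3811 (0, 0.04, 0.29, 2, 10 uM) for 90 min at 37 C, then heated 3 min at one of 12 temperatures (42-63.9 C). Soluble protein was quantified by TMT10 MS. The value is the DLPTP call of the paper: dose-dependent thermal stabilisation over all temperatures at 10% FDR (F-test of a dose-response against a flat model); one experiment, one call per tested protein.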

Protein sequences, listed by entry. Tags and fused reporters are not part of them. Lines headed by an entry give the natural chain unless they say otherwise; changes in a name come on top.
UniProt Q9BY44: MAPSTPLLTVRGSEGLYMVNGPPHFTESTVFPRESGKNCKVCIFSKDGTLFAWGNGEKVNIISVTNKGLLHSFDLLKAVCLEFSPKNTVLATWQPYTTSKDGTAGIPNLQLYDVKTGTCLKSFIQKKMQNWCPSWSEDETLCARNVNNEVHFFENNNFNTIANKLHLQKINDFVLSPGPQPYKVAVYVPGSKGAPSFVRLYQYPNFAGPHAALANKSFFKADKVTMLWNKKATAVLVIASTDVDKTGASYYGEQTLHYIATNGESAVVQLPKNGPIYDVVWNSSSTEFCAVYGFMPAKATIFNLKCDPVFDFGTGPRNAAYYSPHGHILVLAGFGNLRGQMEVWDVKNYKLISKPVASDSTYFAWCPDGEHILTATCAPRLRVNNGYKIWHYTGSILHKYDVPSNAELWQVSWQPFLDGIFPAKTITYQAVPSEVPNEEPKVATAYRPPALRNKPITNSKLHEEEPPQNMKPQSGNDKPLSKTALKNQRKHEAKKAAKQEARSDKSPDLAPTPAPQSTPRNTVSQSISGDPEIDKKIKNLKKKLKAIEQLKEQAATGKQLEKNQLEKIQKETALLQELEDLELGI
UniProt Q92979: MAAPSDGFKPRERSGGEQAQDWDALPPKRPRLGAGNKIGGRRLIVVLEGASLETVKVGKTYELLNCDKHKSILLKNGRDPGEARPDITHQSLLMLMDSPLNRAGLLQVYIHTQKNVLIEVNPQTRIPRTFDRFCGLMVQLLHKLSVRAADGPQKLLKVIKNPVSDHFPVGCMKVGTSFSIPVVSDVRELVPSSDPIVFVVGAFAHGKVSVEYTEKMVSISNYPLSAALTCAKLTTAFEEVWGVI
UniProt P16930: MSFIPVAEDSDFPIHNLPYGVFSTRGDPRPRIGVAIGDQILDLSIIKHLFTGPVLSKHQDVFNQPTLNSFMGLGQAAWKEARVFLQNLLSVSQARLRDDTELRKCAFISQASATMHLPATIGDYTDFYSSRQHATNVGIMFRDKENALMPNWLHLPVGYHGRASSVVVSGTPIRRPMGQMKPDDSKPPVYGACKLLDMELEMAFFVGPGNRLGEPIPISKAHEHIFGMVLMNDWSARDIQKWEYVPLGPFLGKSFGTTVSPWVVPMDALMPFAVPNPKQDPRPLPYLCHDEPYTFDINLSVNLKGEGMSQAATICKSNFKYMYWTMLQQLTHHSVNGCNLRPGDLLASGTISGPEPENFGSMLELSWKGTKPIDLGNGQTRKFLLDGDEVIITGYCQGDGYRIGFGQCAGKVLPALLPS
UniProt Q9UI08, whole entry: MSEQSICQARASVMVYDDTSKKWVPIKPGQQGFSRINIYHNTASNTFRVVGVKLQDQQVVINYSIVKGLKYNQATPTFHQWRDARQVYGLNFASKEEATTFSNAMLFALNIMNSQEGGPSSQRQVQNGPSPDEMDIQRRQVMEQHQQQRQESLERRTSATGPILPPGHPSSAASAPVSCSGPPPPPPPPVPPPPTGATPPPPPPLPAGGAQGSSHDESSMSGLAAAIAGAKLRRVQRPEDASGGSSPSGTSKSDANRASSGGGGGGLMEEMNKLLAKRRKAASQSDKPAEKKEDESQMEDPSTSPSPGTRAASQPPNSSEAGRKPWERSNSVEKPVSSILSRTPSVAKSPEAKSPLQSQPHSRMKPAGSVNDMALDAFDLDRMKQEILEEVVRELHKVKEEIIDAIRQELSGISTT
UniProt P33316: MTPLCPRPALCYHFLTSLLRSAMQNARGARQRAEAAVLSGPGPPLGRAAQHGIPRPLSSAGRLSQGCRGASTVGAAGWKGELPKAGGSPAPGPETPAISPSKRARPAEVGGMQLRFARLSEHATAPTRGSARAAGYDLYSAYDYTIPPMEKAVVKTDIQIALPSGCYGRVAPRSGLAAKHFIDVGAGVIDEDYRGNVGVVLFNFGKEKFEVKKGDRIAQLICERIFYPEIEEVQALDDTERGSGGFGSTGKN
UniProt P23919: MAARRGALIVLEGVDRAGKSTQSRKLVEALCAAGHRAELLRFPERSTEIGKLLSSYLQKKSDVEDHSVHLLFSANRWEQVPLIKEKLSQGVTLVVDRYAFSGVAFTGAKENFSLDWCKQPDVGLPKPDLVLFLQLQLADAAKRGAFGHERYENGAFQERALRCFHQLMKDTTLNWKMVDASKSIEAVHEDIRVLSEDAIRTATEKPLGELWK
UniProt O00303, whole entry: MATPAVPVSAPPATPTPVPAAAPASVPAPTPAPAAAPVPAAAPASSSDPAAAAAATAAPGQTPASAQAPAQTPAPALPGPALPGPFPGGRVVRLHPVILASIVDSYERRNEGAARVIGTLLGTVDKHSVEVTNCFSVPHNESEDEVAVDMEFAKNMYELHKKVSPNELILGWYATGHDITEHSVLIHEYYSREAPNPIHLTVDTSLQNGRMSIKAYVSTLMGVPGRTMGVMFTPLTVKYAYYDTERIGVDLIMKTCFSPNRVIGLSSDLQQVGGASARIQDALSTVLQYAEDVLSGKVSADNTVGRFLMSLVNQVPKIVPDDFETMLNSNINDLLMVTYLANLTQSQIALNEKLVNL
UniProt P68104, whole entry: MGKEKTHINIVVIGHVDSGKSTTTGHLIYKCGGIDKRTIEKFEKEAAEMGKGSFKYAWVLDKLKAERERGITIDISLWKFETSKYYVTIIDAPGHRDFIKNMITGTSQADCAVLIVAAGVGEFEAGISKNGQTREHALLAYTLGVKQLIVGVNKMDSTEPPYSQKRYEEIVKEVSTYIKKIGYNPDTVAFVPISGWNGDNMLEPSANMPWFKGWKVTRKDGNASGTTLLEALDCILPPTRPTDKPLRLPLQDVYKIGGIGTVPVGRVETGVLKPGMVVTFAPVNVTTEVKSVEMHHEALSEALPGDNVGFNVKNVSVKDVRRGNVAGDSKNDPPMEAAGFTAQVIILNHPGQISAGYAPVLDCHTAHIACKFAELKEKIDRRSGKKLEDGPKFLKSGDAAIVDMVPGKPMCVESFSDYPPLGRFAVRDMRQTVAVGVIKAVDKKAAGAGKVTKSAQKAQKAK
UniProt Q9BVC3, whole entry: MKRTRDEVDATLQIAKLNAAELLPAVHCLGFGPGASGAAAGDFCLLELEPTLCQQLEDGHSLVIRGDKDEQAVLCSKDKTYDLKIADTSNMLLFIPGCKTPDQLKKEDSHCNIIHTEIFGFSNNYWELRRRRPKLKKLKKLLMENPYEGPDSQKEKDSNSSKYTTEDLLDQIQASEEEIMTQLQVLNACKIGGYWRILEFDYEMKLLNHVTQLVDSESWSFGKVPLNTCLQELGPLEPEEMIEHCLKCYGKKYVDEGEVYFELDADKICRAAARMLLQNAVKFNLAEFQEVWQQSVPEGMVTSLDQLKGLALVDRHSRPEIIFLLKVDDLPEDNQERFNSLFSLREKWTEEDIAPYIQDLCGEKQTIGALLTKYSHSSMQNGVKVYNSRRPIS
UniProt O95864: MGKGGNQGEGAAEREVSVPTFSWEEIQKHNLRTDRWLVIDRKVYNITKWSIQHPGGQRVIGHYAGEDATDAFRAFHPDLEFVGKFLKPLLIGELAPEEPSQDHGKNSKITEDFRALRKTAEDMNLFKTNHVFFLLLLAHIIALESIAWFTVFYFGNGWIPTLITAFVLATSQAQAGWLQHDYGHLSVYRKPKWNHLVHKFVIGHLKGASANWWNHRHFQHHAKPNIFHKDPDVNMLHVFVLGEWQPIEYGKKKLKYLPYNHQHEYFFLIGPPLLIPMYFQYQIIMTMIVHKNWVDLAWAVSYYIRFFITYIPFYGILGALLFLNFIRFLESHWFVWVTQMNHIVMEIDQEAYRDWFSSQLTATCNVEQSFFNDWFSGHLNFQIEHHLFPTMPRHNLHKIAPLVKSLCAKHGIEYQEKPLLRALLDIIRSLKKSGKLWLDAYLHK
UniProt O75822, whole entry: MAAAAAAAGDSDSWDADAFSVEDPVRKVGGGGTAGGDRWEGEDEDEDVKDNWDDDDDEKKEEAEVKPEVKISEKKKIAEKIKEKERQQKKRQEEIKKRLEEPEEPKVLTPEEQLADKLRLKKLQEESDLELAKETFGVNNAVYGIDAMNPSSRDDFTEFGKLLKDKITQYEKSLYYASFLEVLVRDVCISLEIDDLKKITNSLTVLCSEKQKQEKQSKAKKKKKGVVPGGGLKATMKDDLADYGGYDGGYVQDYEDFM
UniProt Q13347, whole entry: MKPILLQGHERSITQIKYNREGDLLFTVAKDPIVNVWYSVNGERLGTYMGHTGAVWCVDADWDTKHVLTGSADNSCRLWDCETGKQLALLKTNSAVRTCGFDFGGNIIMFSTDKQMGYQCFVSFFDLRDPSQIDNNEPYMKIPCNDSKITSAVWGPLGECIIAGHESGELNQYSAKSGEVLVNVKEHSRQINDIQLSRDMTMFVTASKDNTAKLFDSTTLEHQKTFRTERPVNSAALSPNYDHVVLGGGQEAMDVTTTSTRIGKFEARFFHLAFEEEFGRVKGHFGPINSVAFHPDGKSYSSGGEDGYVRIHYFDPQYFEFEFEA
UniProt Q9NPD3, whole entry: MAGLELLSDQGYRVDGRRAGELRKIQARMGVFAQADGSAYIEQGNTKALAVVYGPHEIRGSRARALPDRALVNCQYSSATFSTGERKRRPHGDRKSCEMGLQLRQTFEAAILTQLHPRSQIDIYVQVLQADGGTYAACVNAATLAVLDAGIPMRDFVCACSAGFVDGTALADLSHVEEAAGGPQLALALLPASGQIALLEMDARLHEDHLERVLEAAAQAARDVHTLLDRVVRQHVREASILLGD
UniProt Q7RTS9: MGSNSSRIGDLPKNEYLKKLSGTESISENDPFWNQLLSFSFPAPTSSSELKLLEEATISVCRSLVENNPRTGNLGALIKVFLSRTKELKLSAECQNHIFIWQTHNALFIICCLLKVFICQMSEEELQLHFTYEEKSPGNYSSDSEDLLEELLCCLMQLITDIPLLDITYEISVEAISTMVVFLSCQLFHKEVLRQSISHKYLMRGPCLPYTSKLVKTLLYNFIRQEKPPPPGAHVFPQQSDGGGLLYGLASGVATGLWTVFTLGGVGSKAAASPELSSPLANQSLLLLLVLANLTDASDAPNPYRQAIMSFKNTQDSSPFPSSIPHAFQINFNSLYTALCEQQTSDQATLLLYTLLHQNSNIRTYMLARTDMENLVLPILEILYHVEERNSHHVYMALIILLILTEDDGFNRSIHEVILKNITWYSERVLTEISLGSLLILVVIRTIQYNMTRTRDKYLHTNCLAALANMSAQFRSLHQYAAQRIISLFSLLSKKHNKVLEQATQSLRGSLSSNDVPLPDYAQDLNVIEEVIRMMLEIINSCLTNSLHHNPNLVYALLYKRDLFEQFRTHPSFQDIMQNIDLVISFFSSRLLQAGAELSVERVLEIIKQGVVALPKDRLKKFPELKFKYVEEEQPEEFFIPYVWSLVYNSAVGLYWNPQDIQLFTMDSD
UniProt Q14249: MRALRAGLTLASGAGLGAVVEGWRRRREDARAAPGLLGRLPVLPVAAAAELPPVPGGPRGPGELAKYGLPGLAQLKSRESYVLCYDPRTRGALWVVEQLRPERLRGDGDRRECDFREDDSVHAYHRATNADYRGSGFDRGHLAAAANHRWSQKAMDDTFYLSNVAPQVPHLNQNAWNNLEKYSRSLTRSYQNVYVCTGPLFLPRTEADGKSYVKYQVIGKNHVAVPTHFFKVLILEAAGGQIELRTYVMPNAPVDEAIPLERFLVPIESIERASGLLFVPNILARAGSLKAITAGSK
UniProt Q9HBU6: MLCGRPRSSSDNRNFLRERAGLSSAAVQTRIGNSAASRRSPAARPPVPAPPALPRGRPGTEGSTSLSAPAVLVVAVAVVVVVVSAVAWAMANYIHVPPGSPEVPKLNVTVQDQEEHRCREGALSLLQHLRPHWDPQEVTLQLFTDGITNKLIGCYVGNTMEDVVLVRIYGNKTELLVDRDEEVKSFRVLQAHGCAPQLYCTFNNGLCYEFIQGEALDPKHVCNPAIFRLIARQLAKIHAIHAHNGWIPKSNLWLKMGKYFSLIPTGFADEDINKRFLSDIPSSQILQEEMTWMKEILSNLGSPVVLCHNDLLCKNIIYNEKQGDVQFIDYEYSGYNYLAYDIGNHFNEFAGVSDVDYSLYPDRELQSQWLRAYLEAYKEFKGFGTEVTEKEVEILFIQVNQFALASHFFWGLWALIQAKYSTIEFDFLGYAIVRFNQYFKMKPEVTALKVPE
UniProt Q9H9T3: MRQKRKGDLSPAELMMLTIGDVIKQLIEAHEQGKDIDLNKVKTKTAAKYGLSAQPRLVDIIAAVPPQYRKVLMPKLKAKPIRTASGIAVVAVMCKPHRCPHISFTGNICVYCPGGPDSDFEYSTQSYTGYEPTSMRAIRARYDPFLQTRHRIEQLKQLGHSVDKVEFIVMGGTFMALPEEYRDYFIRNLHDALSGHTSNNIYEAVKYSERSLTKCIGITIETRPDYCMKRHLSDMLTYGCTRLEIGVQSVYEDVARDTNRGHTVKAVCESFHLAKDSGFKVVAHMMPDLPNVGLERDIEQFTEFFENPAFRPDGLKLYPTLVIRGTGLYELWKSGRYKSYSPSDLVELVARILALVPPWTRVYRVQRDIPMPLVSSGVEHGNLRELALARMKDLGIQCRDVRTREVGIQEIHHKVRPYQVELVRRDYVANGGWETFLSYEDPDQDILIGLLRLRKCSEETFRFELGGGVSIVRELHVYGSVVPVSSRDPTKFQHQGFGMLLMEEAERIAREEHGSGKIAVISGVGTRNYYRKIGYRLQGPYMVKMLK

Target	dose-dependent thermal stabilisation call
EIF3C (UniProt Q99613)	inactive: 0
EHMT2 (UniProt Q96KQ7)	inactive: 0
EIF2A (UniProt Q9BY44)	inactive: 0
EMG1 (UniProt Q92979)	inactive: 0
ELOVL5 (UniProt Q9NYP7)	inactive: 0
FAH (UniProt P16930)	inactive: 0
EVL (UniProt Q9UI08)	inactive: 0
DYRK1A (UniProt Q13627)	inactive: 0
DUT (UniProt P33316)	inactive: 0
DRG1 (UniProt Q9Y295)	inactive: 0
DTYMK (UniProt P23919)	inactive: 0
EIF3F (UniProt O00303)	inactive: 0
EEF1A1 (UniProt P68104)	inactive: 0
DSCC1 (UniProt Q9BVC3)	inactive: 0
FADS2 (UniProt O95864)	inactive: 0
EIF3J (UniProt O75822)	inactive: 0
EXOC2 (UniProt Q96KP1)	inactive: 0
EIF3I (UniProt Q13347)	inactive: 0
EIF2C2 (UniProt Q9UKV8)	inactive: 0
EIF3H (UniProt O15372)	inactive: 0
EXOSC4 (UniProt Q9NPD3)	inactive: 0
DYM (UniProt Q7RTS9)	inactive: 0
ENDOG (UniProt Q14249)	inactive: 0
EXOC8 (UniProt Q8IYI6)	inactive: 0
EXOC7 (UniProt Q9UPT5)	inactive: 0
ETNK1 (UniProt Q9HBU6)	inactive: 0
ELP3 (UniProt Q9H9T3)	inactive: 0

Pulled one by one from the list above:
Target	dose-dependent thermal stabilisation call
EIF2A (UniProt Q9BY44)	inactive: 0
DRG1 (UniProt Q9Y295)	inactive: 0
